Measurements: paper PMC11848413, “Bacterial polysaccharide lyase family 33: Specificity from an evolutionarily conserved binding tunnel” (Proceedings of the National Academy of Sciences of the …, 2025)
These are yes or no findings as the source states them, for the method shown. Some results given as binding are weak or reduced against the parent protein; the word gives no strength. Where a sequence is shown, tags or fusion partners need not be part of it.

Target: BcellWH2_04512 (BcPL33^HA), PL33_1 hyaluronidase from Bacteroides cellulosilyticus WH2 (Bacteroides cellulosilyticus WH2)
Experiment: crystal structure; apo crystal structures of BtPL33^HA and BcPL33^HA; dimer interface analysed with PISA; both purified

- binding: binds
B1: BcellWH2_04512 (BcPL33^HA), PL33_1 hyaluronidase from Bacteroides cellulosilyticus WH2 (enzyme)
chain: YTERNLLQKAAGSEEQLKEALVMNQKWVPYPAYNDRAGWNELLGTNKESLIRAGEKMLNYEWKVIRATDYLEYERSGERNIMQNPYEANRKAINALMLAELAEGKGRFIDQLINGAFYSCEMTSWVLSAHLVRQSTKRSLPDYREQVIDLGSGNFGSMLSWVYYFFHDSFDKIDPVISQRLRHTLQERILDPYMNNDREWWMAFQWKPGMIINNWNPWCNSNVLQCYLLLENDRDRLAKAVWRSMQSVDKFINFVKADGACEEGPSYWGHAAGKMYDYLQILSDGTDGKVSLFKEPMIRRMGEYISRTYVGNGWVVNFADASAKGGGDAPLIYRYGRAVGSEEMMQFAAYLLDGKRPSVPLGNDTFRSLQSILWNGELEKTTAAHTIPACTWYPETEFCYLTNKSGWFLATKGGFNNESHNHNDVGTFSLYVNTIPVLIDAGVGTYTRQTFSSERYTIWTMQSNYHNLPMINGVPQSFGQNYKATDVVCQPKKRFFSANIATAYPKEAEVNSWTRAYSLGDKQLTITDNFSLKSAKESNQVNFLTWGKVDISVPGKVTIDVQGQKVTLEYPGEFTATVETINLPDTRLSNVWGTEIYRIALKDKDARLTGKYKFVIK
notes: BcellWH2_04512, polysaccharide lyase family 33 subfamily 1 hyaluronidase of Bacteroides cellulosilyticus WH2; 68% identical to BtPL33^HA; Cloned in pET28a with either an N- or a C-terminal His6 tag; source: E. coli BL21 (DE3) or TUNER, purified (Talon cobalt IMAC, S200 Superdex SEC)
